Results are given in words; binding and its absence hold for the method and conditions named. Some binding calls cover weakened binding; strength is not graded here.
Legend:
[1] = target: LRP5 (as used in Example 11) (UniProt O75197); assay: legend of FIG. 10
[2] = target: LRP5 (as used in Example 11) (UniProt O75197); assay: summary of Example 11

The chains behind the UniProt entries cited, without tags or fusion partners. Residues count along the entry.
UniProt O75197, residues 32-1615: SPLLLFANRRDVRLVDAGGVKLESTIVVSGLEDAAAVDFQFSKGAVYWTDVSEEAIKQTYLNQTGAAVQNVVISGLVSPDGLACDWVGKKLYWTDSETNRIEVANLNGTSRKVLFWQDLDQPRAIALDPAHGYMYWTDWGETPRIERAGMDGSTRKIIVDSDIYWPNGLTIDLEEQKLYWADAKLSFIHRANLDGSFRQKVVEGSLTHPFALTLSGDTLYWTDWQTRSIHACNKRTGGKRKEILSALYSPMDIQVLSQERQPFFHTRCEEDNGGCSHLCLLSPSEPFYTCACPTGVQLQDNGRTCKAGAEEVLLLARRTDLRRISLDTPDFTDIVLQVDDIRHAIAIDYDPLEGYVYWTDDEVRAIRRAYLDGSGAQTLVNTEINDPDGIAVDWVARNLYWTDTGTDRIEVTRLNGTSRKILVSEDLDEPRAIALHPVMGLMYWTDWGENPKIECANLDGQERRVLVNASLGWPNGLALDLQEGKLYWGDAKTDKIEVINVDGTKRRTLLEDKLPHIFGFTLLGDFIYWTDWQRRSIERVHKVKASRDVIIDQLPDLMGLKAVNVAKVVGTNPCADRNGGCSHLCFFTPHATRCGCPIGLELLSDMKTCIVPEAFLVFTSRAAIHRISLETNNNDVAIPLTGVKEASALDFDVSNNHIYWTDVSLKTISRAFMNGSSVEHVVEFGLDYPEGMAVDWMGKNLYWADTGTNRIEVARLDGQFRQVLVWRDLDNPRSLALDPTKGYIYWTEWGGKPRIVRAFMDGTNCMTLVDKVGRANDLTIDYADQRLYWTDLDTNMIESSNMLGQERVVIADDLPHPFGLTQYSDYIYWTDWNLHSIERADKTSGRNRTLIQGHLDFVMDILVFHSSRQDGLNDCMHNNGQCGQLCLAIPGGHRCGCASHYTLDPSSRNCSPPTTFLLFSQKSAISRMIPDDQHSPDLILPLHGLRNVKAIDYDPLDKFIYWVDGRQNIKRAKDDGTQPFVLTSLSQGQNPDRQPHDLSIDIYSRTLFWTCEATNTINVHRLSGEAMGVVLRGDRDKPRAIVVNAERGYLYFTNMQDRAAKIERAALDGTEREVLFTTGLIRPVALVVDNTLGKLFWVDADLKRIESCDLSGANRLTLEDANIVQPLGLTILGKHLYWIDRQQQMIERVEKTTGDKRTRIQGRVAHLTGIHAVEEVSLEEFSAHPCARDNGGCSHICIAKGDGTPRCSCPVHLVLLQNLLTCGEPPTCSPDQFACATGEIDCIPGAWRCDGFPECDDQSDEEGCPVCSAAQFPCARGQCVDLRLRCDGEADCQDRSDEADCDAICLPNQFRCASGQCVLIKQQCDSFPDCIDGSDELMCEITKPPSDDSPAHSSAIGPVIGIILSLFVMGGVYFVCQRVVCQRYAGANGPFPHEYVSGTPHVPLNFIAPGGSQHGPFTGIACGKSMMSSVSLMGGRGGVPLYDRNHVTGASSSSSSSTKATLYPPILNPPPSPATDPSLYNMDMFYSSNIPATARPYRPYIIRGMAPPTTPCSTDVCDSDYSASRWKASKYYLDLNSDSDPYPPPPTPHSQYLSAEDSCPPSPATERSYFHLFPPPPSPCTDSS

binding [1]: binds | binding [2]: binds
Binder: KGGGSKEKNKTKPEKAKKKEGDPKPRASKEDNRAGSR [Mesd oligopeptide …]
